From PubChem BioAssay AID1347076 (National Center for Advancing Translational Sciences (NCATS), 2019)
The campaign covered roughly 400,000 compounds. About 13,000 (3.2%) were called active. The shares of active, inactive and inconclusive entries below differ from those in the screen. Calls come from the whole dose curve; as a rule, active = well fitted cell-killing curve with a large enough effect; inconclusive = small, poorly fitted or top-dose-only effect, or effect the other way; inactive = flat fitted curve, though single readings scatter. Potencies beside an inconclusive call are fits to weak or partial responses and may not hold up.

Experiment: qHTS assay for MDR1-selective chemotherapeutics: Primary screen using the drug-selected MDR subline cells KB-V1; note: nearly all actives have a fitted effect of over 60% in size
Details: KB-V1 MDR cells viability, CellTiter-Glo, 72 h; activity change, negative = cytotoxicity: at 46.1 µM (top of the series)
Procedure, shortened: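 Compound-treated KB-V1 multidrug-resistant cells, 72 h, 37 degrees C; viability by CellTiter-Glo. Fitted qHTS curves give the values.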
% is set by controls: 0 for no effect and ±100 for the full control effect; potency is the fitted concentration of half-maximal effect.

Structure (SMILES)	activity change, negative = cytotoxicity	Potency
O=S(=O)(c1cc(Br)c(Br)s1)N1CCN(c2ccccc2)CC1	inactive: 8.99%	–
COc1ccccc1C(=O)Nc1cccc(OCc2cc(=O)n3c(C)csc3n2)c1	–	inconclusive: 5.17 µM [cytotoxic, full curve]
COc1cc(/C=C(/NC(=O)c2ccccc2)C(=O)Nc2ccccc2)c([N+](=O)[O-])cc1OC	–	active: 16.4 µM
O=C(Cc1ccc(S(=O)(=O)N2CCOCC2)s1)N1CCN(S(=O)(=O)c2cccc(Cl)c2)CC1	inactive: -29.9%	–
COc1ccc(CONS(=O)(=O)c2ccc(NC(C)=O)cc2)cc1Cl	–	inconclusive: 23.1 µM [cytotoxic, single point]
CC(=O)NC1C(=O)N(Cc2ccccc2)c2ccc(Br)cc21 (stereo not given)	–	inconclusive: 23.1 µM [cytotoxic, partial curve, poor fit]
CCOc1ccc(Br)cc1C1=CC(=O)C[C@H](c2ccc(OC)cc2)C1	–	active: 16.4 µM
CC(NC(=O)COC(=O)c1cc(Cl)ccc1O)C1CC2CCC1C2 (stereo not given)	–	inconclusive: 29.1 µM [rising, single point]
CSCCC(NC(=O)c1ccco1)C(=O)O (stereo not given)	–	inconclusive: 23.1 µM [rising, partial curve, poor fit]
CCOc1ccccc1C(=O)Nc1ccccc1-c1ccccc1	–	active: 14.6 µM
Cc1cccnc1NC(=O)c1ccc2nc(N)sc2c1	–	inconclusive: 14.6 µM [cytotoxic, partial curve, poor fit]
Cc1ccc(NC(=O)c2cc3nc(C)cc(C)n3n2)cc1	–	inconclusive: 9.2 µM [cytotoxic, partial curve, poor fit]
Cc1nnc(SCC(=O)Nc2cccc(S(=O)(=O)N(C)c3ccccc3)c2)s1	–	inconclusive: 32.6 µM [cytotoxic, partial curve, poor fit]
COc1ccc(CCN(Cc2ccccn2)C(=S)Nc2ccccc2Cl)cc1OC	–	inconclusive: 7.31 µM [cytotoxic, partial curve]
CC(c1nnnn1C1CCCCC1)N(Cc1ccccc1)Cc1cccnc1 (stereo not given)	–	inconclusive: 0.0073 µM [rising, full curve, poor fit]
COc1c(C)cccc1C(=O)Nc1ccc(Cl)c(-c2nc3cc(C)ccc3o2)c1	inactive: -22.4%	–
Cc1ccccc1Nc1nc(N)nc(CN2CCN(Cc3ccc4c(c3)OCO4)CC2)n1	–	inconclusive: 10.3 µM [cytotoxic, partial curve]
CCOC(=O)c1[nH]c2ccccc2c1NC(=S)Nc1cc(C)ccc1C	–	inconclusive: 32.6 µM [cytotoxic, single point]
CNC(=O)COC(=O)/C=C/c1cn(-c2ccccc2)nc1-c1ccc2c(c1)OCCO2	inactive: -1.84%	–
C=CC[C@H](CC(=O)OC(C)(C)C)C(=O)OC[C@H]1CCCN1C(=O)[C@H](CC=C)CC(=O)NCCO	–	inconclusive: 32.6 µM [cytotoxic, partial curve, poor fit]

Structure (SMILES)	activity change, negative = cytotoxicity	Potency
CN(CC(=O)Nc1ccccc1Br)C(=O)c1sccc1-c1ccccc1	–	inconclusive: 0.0206 µM [cytotoxic, full curve]
COC(=O)c1ccccc1NC(=O)CNCCc1ccc(OC)c(OC)c1	–	inconclusive: 7.31 µM [cytotoxic, partial curve, poor fit]
COc1cc2c(c(OC)c1OC)-c1ccc(OC)c(=O)cc1C(NC(=O)c1ccccc1)CC2 (stereo not given)	–	inconclusive: 4.11 µM [cytotoxic, full curve, poor fit]
CC(=O)OC[C@H]1O[C@@H](n2ncc(=O)[nH]c2=O)[C@H](OC(C)=O)[C@@H]1OC(C)=O	–	active: 8.2 µM
COc1ccc(OC)c(NC(=O)CCNC(=O)Cn2ccc3ccccc3c2=O)c1	–	inconclusive: 18.4 µM [rising, partial curve, poor fit]
CC(CCc1ccccc1)NC(=O)CNC(=S)N(Cc1cccs1)C1CCCC1 (stereo not given)	–	inconclusive: 10.3 µM [cytotoxic, partial curve]
Cc1cc(Cl)c(OCCCCN2CCOCC2)c(Br)c1	–	inconclusive: 18.4 µM [cytotoxic, single point]
O=C1CCCc2c1oc1c2CCCC1	inactive: 18.6%	–
CCc1nc2c(OCc3ccc(Cl)cc3)cccn2c1N(C)C(=O)c1ccccc1F	–	inconclusive: 29.1 µM [cytotoxic, partial curve, poor fit]
CCOc1ccccc1NC(=O)Nc1ccc2nc(N3CCN(C)CC3)cc(C)c2c1	–	inconclusive: 29.1 µM [cytotoxic, single point]
C/C=C/Cn1c(SCc2ccc(Cl)cc2)nc2c1c(=O)[nH]c(=O)n2C	–	inconclusive: 5.8 µM [cytotoxic, partial curve, poor fit]
Nc1nccc(-c2ccc(-n3cccc3)cc2)n1	–	inconclusive: 9.2 µM [rising, partial curve, poor fit]
CCOc1ccc(CCNC(=O)C(CC(C)C)N2Cc3ccccc3C2=O)cc1OCC (stereo not given)	–	inconclusive: 1.84 µM [cytotoxic, partial curve, poor fit]
COc1cc(/C=N/NC(=O)c2ccoc2C)cc(OC)c1O	–	inconclusive: 20.6 µM [cytotoxic, single point]
O=C(Cn1cnc(S(=O)(=O)N2CCCCC2)c1)Nc1ccc(OC(F)(F)F)cc1	–	inconclusive: 20.6 µM [rising, partial curve]
COc1cccc(-c2nc(CS(=O)(=O)CC(=O)NCCCN3C(C)CCCC3C)c(C)o2)c1 (stereo not given)	–	inconclusive: 11.6 µM [rising, partial curve, poor fit]
S=C(NCCc1cccc(Cl)c1)NC1CCCCC1	–	inconclusive: 29.1 µM [cytotoxic, single point]
C=CCN1c2ccccc2[C@]23C[C@@H](C(=O)OC)N(C(C)=O)C2=NC(C(=O)OC)=C(C(=O)OC)[C@H]13	–	inconclusive: 29.1 µM [rising, single point]
COc1cccc(CNC(=O)CCn2ccc3cc(S(=O)(=O)N4CCC(C)CC4)ccc32)c1	–	inconclusive: 18.4 µM [cytotoxic, partial curve, poor fit]
CCOCCc1nn2c(=O)cc(COC(=O)COc3ccc(C)c(C)c3)nc2s1	–	inconclusive: 0.116 µM [rising, full curve, poor fit]

In a second layout: 2 of the compounds above.

| Structure (SMILES) | activity change, negative = cytotoxicity | Potency |
| --- | --- | --- |
| O=C(Cn1cnc(S(=O)(=O)N2CCCCC2)c1)Nc1ccc(OC(F)(F)F)cc1 | – | inconclusive: 20.6 µM [rising, partial curve] |
| COc1cccc(-c2nc(CS(=O)(=O)CC(=O)NCCCN3C(C)CCCC3C)c(C)o2)c1 (stereo not given) | – | inconclusive: 11.6 µM [rising, partial curve, poor fit] |
